PubChem BioAssay AID652243, Drosophila RNAi Screening Center | 2013

Test: 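Fly genes required for human androgen receptor driven transcription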 (primary screen)
System: Drosophila S2R+ cells
Reagent: long dsRNA against Drosophila genes
Time to read-out: 72 h (48 h, then 24 h hormone)
Challenge: synthetic androgen R1881 at 10 nM for 24 h
Measured: 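Per-well raw luminescence of the androgen-driven firefly reporter and of the Renilla control, two replicates each, without normalisation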
Reading the numbers: firefly reporter light: higher = more light from androgen-responsive reporter; Renilla control light: higher = more constitutive control signal (cell number, transfection)
Rule for the call: 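Hit when the log firefly-to-Renilla ratio dropped or increased by a fixed fold versus the mean of GFP or LacZ controls across duplicate plates; lowering cut given as 1.5 and as 3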
Meaning of the calls: active = hit: reporter lowered or raised; inactive = no hit
The screen tested about 24,000 reagents; shown is a random part of those that have a named target and a result. In the full data, 246 (1%) were called active. 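Plates not normalised; calls are printed but the firefly/Renilla ratio behind them is not deposited; fold cut for lowering reported inconsistently.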 Raw values are not corrected between plates. A number with no mark means an inactive call. The numbers tell different reagents against one gene apart. No sequences are given here. Not stated in the record: the amount of reagent.

| target | reagent no. | firefly reporter light, replicate 1 | firefly reporter light, replicate 2 | Renilla control light, replicate 1 | Renilla control light, replicate 2 |
| --- | --- | --- | --- | --- | --- |
| CG9609 | 1 | 66675 | 72332 | 4.61e5 | 6.46e5 |
| CG9609 | 2 | 3.70e5 | 2.68e5 | 6.48e5 | 5.22e5 |
| sog (short gastrulation) | 1 | 4.82e5 | 4.08e5 | 3.19e6 | 3.00e6 |
| CG9518 | 1 | 4.58e5 | 4.75e5 | 3.11e6 | 3.22e6 |
| CG9518 | 2 | 4.55e5 | 3.38e5 | 8.05e5 | 7.16e5 |
| Pdss2 (Decaprenyl diphosphate synthase subunit 2) | 1 | 66763 | 49541 | 4.65e5 | 3.62e5 |
| CG6983 | 1 | 1.16e6 | 1.06e6 | 2.35e6 | 2.44e6 |
| CG12107 | 1 | 1.55e6 | 1.22e6 | 1.71e6 | 1.88e6 |
| SCCRO3 (Squamous cell carcinoma-related oncogene 3) | 1 | 1.36e5 | 1.08e5 | 1.07e6 | 1.11e6 |
| SCCRO3 (Squamous cell carcinoma-related oncogene 3) | 2 | 3.40e5 | 3.43e5 | 6.38e5 | 8.18e5 |
| CG13747 | 1 | 3.90e5 | 3.52e5 | 2.14e6 | 2.42e6 |
| CG14961 | 1 | 83695 | 1.05e5 | 1.44e6 | 1.68e6 |
| CG32811 | 1 | 7.64e5 | 8.43e5 | 1.53e6 | 1.86e6 |

Copied from the entries so far, 2 entries:
| target | reagent no. | firefly reporter light, replicate 1 | firefly reporter light, replicate 2 | Renilla control light, replicate 1 | Renilla control light, replicate 2 |
| --- | --- | --- | --- | --- | --- |
| CG9518 | 1 | 4.58e5 | 4.75e5 | 3.11e6 | 3.22e6 |
| CG9518 | 2 | 4.55e5 | 3.38e5 | 8.05e5 | 7.16e5 |

Continued.
| target | reagent no. | firefly reporter light, replicate 1 | firefly reporter light, replicate 2 | Renilla control light, replicate 1 | Renilla control light, replicate 2 |
| --- | --- | --- | --- | --- | --- |
| dod (dodo) | 1 | 1.77e5 | 1.61e5 | 6.79e5 | 4.01e5 |
| dod (dodo) | 2 | 4.40e5 | 4.15e5 | 9.32e5 | 5.68e5 |
| CG42663 | 1 | 1.29e5 | 92970 | 1.14e6 | 1.10e6 |
| CG42663 | 2 | 3.00e5 | 2.21e5 | 1.99e6 | 1.55e6 |
| CG42663 | 3 | 9.38e5 | 6.43e5 | 1.49e6 | 1.33e6 |
| CG9701 | 1 | 69956 | 51314 | 5.70e5 | 3.81e5 |
| CG9701 | 2 | 3.48e5 | 2.80e5 | 5.90e5 | 6.54e5 |
| Traf6 (TNF-receptor-associated factor 6) | 1 | 2.71e5 | 2.95e5 | 2.48e6 | 3.69e6 |
| CG9426 | 1 | 2.75e5 | 2.08e5 | 1.73e6 | 1.97e6 |
| CG3862 | 1 | 6.78e5 | 6.30e5 | 2.74e6 | 2.37e6 |
| CG3862 | 2 | 3.85e5 | 6.20e5 | 5.65e5 | 8.67e5 |
